PubChem BioAssay AID248 (DTP/NCI, 2004)
The list shows only some results of the screen, not a fair sample: it is rich in T/C values a quarter to a half above the control, in often repeated tests (any T/C) and in doses without a T/C. Other doses and runs of a compound stand elsewhere. T/C: endpoint of the treated group in % of that of the vehicle group. Some entries give survivors of the animals treated and no T/C: the source holds a T/C of zero for them, seemingly a mark for toxic or unscored doses. Some survivor counts are full or nearly so, which does not show that the dose was tolerated: the source hardly ever lists a survival T/C far under the control, and the zero likely stands for such cases as well. Survivors were counted at the toxicity check, usually on the fifth day, unless a day is given; later deaths do not show. Schedule codes are those of the source, taken here to give the interval after Q, in days (D) or hours (H), and the number of doses after X. Some schedules carry Z or #; the key to these is not given. Where survival is the endpoint, this PubChem deposit counts one and a half times the control or more as active, and values a quarter to a half above the control carry no call in these data; other NCI protocols may use other cut-offs. Some T/C values carry the count of animals alive at the toxicity check (mostly the fifth day); where none is given, no animal had died by that day.

System: L1210 leukemia ip in BDF1 mice, survival T/C
Experiment: NCI In Vivo Anticancer Drug Screen. Data for tumor model L1210 Leukemia (intraperitoneal) in B6D2F1 (BDF1) mice
Conditions: T/C endpoint: mean survival time, higher T/C = longer survival
[1] = dose: 200.0 mg/kg/injection, schedule: Q01DX009 (ip), vehicle: Klucel (hydroxypropylcellulose) (HPC)
[2] = dose: 200.0 mg/kg/injection, schedule: Q04DX003 (ip), vehicle: saline with Tween-80
[3] = dose: 50.0 mg/kg/injection, schedule: Q04DX003 (ip), vehicle: saline
[4] = dose: 100.0 mg/kg/injection, schedule: Q04DX003 (ip), vehicle: saline
[5] = dose: 200.0 mg/kg/injection, schedule: Q04DX003 (ip), vehicle: saline
[6] = dose: 400.0 mg/kg/injection, schedule: Q04DX003 (ip), vehicle: saline
[7] = dose: 400.0 mg/kg/injection, schedule: Q01DX001 (ip), vehicle: saline
[8] = dose: 400.0 mg/kg/injection, schedule: Q04DX003 (ip), vehicle: Klucel (hydroxypropylcellulose) (HPC)
[9] = dose: 400.0 mg/kg/injection, schedule: Q01DX001 (ip), vehicle: other
[10] = dose: 100.0 mg/kg/injection, schedule: Q01DX009 (ip), vehicle: Klucel (hydroxypropylcellulose) (HPC)
[11] = dose: 400.0 mg/kg/injection, schedule: Q01DX009 (ip), vehicle: saline with Tween-80

In the case of `CCC(C)N(C)/N=N/c1nc[nH]c1C(N)=O` (stereo not drawn), the T/C (dose: 12.5 mg/kg/injection, schedule: Q01DX009 (ip), vehicle: water) is reported as 127 % of control, the T/C (dose: 25.0 mg/kg/injection, schedule: Q01DX009 (ip), vehicle: Klucel (hydroxypropylcellulose) (HPC)) is reported as 135 % of control and the T/C (dose: 25.0 mg/kg/injection, schedule: Q01DX009 (ip), vehicle: water) is reported as 143 % of control. For the same compound, the T/C (dose: 38.0 mg/kg/injection, schedule: Q01DX009 (ip), vehicle: Klucel (hydroxypropylcellulose) (HPC)) was 146 % of control, the T/C (dose: 50.0 mg/kg/injection, schedule: Q04DX003 (ip), vehicle: water) was 132 % of control and the T/C (dose: 58.0 mg/kg/injection, schedule: Q01DX009 (ip), vehicle: Klucel (hydroxypropylcellulose) (HPC)) was 146 % of control. The T/C (dose: 88.0 mg/kg/injection, schedule: Q01DX009 (ip), vehicle: Klucel (hydroxypropylcellulose) (HPC)) was 146 % of control, the T/C (dose: 100.0 mg/kg/injection, schedule: Q04DX003 (ip), vehicle: water) was 137 % of control and the survivor count [1] was 2 of 6. For the same compound, the T/C [2] was 127 % of control, the T/C (dose: 200.0 mg/kg/injection, schedule: Q04DX003 (ip), vehicle: water) was 147 % of control and the survivor count (dose: 300.0 mg/kg/injection, schedule: Q01DX009 (ip), vehicle: Klucel (hydroxypropylcellulose) (HPC)) was 1 of 6. The T/C (dose: 300.0 mg/kg/injection, schedule: Q04DX003 (ip), vehicle: saline with Tween-80) was 129 % of control, the T/C (dose: 400.0 mg/kg/injection, schedule: Q01DX001 (ip), vehicle: water) was 137 % of control [9 of 10 alive] and the survivor count (dose: 400.0 mg/kg/injection, schedule: Q04DX003 (ip), vehicle: water) was 10 of 10.

`Cc1[nH]c(=S)sc1C` was tested, and the survivor count [3] was 6 of 6, the survivor count [4] was 6 of 6 and the survivor count (dose: 200.0 mg/kg/injection, schedule: Q01DX001 (ip), vehicle: carboxymethylcellulose (CMC)) was 1 of 4. The survivor count (dose: 200.0 mg/kg/injection, schedule: Q01DX009 (ip), vehicle: saline) was 3 of 6, the survivor count [5] was 6 of 6 and the survivor count (dose: 400.0 mg/kg/injection, schedule: Q01DX001 (ip), vehicle: carboxymethylcellulose (CMC)) was 0 of 4.

With `CCCc1c(N)nc(=S)[nH]c1C(=O)O` the survivor count [6] was 6 of 6.

In the case of `C[N+](C)(C)CCOC(=O)c1ccccc1CCl`, the survivor count (dose: 400.0 mg/kg/injection, schedule: Q04DX002 (ip), vehicle: saline with Tween-80) is reported as 2 of 3.

With `CCC1CCCCC1(O)CC` (stereo not drawn) the survivor count (dose: 400.0 mg/kg/injection, schedule: Q01DX009 (ip), vehicle: saline) was 1 of 6.

In the case of `Nc1ncc(CNc2ccc(C(=O)NC(CCC(=O)O)C(=O)O)cc2)c(N)n1` (stereo not drawn), the T/C (dose: 100.0 mg/kg/injection, schedule: Q01DX009 (ip), vehicle: carboxymethylcellulose (CMC)) is reported as 129 % of control, the T/C (dose: 200.0 mg/kg/injection, schedule: Q01DX009 (ip), vehicle: carboxymethylcellulose (CMC)) is reported as 125 % of control and the T/C (dose: 400.0 mg/kg/injection, schedule: Q01DX009 (ip), vehicle: carboxymethylcellulose (CMC)) is reported as 144 % of control. The T/C (dose: 600.0 mg/kg/injection, schedule: Q01DX009 (ip), vehicle: carboxymethylcellulose (CMC)) was 139 % of control and the T/C (dose: 900.0 mg/kg/injection, schedule: Q01DX009 (ip), vehicle: carboxymethylcellulose (CMC)) was 133 % of control.

`NC(=O)c1c[n+]([O-])ccn1` was tested, and the survivor count [7] was 3 of 6.

For `c1ccc2c(c1)ccc1cc3ccncc3cc12`, the T/C [7] was 127 % of control.

With `CCN(CC)Cc1cc(-n2cnc3c(Cl)ncnc32)ccc1O` the survivor count (dose: 25.0 mg/kg/injection, schedule: Q04DX003 (ip), vehicle: saline) was 2 of 6, the survivor count [3] was 0 of 6 and the survivor count [4] was 0 of 6.

In the case of `CCCCN(C(=O)C(F)(F)F)C(C)(C)C(SSSC(c1cccs1)C(C)(C)N(CCCC)C(=O)C(F)(F)F)c1cccs1` (stereo not drawn), the survivor count (dose: 400.0 mg/kg/injection, schedule: Q01DX009 (ip), vehicle: saline sonified) is reported as 5 of 6.

With `Clc1ccc2nsnc2c1` the survivor count (dose: 400.0 mg/kg/injection, schedule: Q01DX001 (ip), vehicle: Klucel (hydroxypropylcellulose) (HPC)) was 0 of 6.

With `COc1cc2c(cc1I)-c1c(cc(OC)c(OC)c1OC)CC[C@@H]2NC(C)=O` the T/C (dose: 60.0 mg/kg/injection, schedule: Q01DX Z (ip), vehicle: carboxymethylcellulose (CMC)) was 147 % of control, the survivor count (dose: 135.0 mg/kg/injection, schedule: Q01DX Z (ip), vehicle: carboxymethylcellulose (CMC)) was 2 of 7 and the survivor count (dose: 165.0 mg/kg/injection, schedule: Q01DX Z (ip), vehicle: carboxymethylcellulose (CMC)) was 1 of 6. The survivor count (dose: 200.0 mg/kg/injection, schedule: Q01DX Z (ip), vehicle: carboxymethylcellulose (CMC)) was 3 of 7 and the survivor count [8] was 6 of 6.

With `CCOC(=O)C1(C(=O)OCC)CCC1` the survivor count [7] was 6 of 6.

For `Cc1coc2c1[C@@H](O)[C@]1(C)[C@@H](C)CC[C@H](O)[C@]1(O)C2`, the survivor count [7] was 0 of 6.

With `CC(C)c1cc(O)ccc1O` the survivor count [9] was 1 of 6.

`O=C1NC(=O)C(c2ccc(Cl)cc2)(c2ccc(Cl)cc2)N1` was tested, and the T/C [10] was 126 % of control [5 of 6 alive].

In the case of `N=C(N)CSSCC(=N)N`, the survivor count (dose: 100.0 mg/kg/injection, schedule: Q04DX003 (ip), vehicle: carboxymethylcellulose (CMC)) is reported as 0 of 6, the survivor count (dose: 200.0 mg/kg/injection, schedule: Q04DX003 (ip), vehicle: carboxymethylcellulose (CMC)) is reported as 0 of 6 and the survivor count (dose: 400.0 mg/kg/injection, schedule: Q04DX003 (ip), vehicle: carboxymethylcellulose (CMC)) is reported as 0 of 6.

In the case of `O=C1COc2ccccc2N1`, the survivor count [9] is reported as 0 of 6.

For `S=C(NCc1ccccc1)[S][Sb]([S]C(=S)NCc1ccccc1)[c]1ccccc1`, the survivor count (dose: 20.0 mg/kg/injection, schedule: Q01DX001 (ip), vehicle: saline) was 3 of 6, the survivor count (dose: 40.0 mg/kg/injection, schedule: Q01DX001 (ip), vehicle: saline) was 1 of 6 and the survivor count (dose: 80.0 mg/kg/injection, schedule: Q01DX001 (ip), vehicle: saline) was 1 of 6. For the same compound, the survivor count (dose: 100.0 mg/kg/injection, schedule: Q01DX001 (ip), vehicle: saline) was 1 of 4, the survivor count (dose: 200.0 mg/kg/injection, schedule: Q01DX001 (ip), vehicle: saline) was 1 of 4 and the survivor count [7] was 0 of 4.

For `CNC(=O)c1ccc(/C=C/c2c[nH]c3ccccc23)[n+](C)c1`, the survivor count [7] was 3 of 6.

For `Cc1cc([N+](=O)[O-])ccc1NS(=O)(=O)c1ccccc1`, the survivor count [8] was 6 of 6.

`CN1C(=O)NC(C)(c2cccs2)C1=O` (stereo not drawn) was tested, and the survivor count [11] was 3 of 6.

`N#CC(NC(=O)NCCCl)c1ccccc1` (stereo not drawn) was tested, and the survivor count [8] was 3 of 6.

For `CCOC(=O)C(=O)c1c(N)n(C)c(=O)n(C)c1=O`, the survivor count (dose: 50.0 mg/kg/injection, schedule: Q01DX009 (ip), vehicle: Klucel (hydroxypropylcellulose) (HPC)) was 2 of 3, the survivor count [10] was 0 of 3 and the survivor count [1] was 0 of 3.

With `CCCC(C)c1ccccc1O` (stereo not drawn) the survivor count [2] was 4 of 6 and the survivor count (dose: 400.0 mg/kg/injection, schedule: Q04DX003 (ip), vehicle: saline with Tween-80) was 3 of 6.

For `CN(C)c1nnc([N+](=O)[O-])s1`, the survivor count (dose: 256.0 mg/kg/injection, schedule: Q04DX003 (ip), vehicle: Klucel (hydroxypropylcellulose) (HPC)) was 4 of 6 and the survivor count (dose: 512.0 mg/kg/injection, schedule: Q04DX003 (ip), vehicle: Klucel (hydroxypropylcellulose) (HPC)) was 2 of 6.

For `C1=CC([P+](Cc2ccccc2)(c2ccccc2)c2ccccc2)CC1` (stereo not drawn), the survivor count [4] was 0 of 6, the survivor count [5] was 0 of 6 and the survivor count [6] was 0 of 6.

`Nc1ccc(C(=O)C(=O)c2ccc(N)cc2)cc1` was tested, and the survivor count (dose: 300.0 mg/kg/injection, schedule: Q01DX001 (ip), vehicle: acetone) was 0 of 6.

In the case of `CCCCCCCCOc1ccccn1`, the survivor count [11] is reported as 6 of 6.

`NC(=O)c1ccc(F)cc1` was tested, and the survivor count (dose: 50.0 mg/kg/injection, schedule: Q01DX001 (ip), vehicle: carboxymethylcellulose (CMC)) was 4 of 4.

With `CCCCCC(Oc1ccc(Cl)cc1Cl)C(=O)O` (stereo not drawn) the survivor count (dose: 400.0 mg/kg/injection, schedule: Q04DX002 (ip), vehicle: Klucel (hydroxypropylcellulose) (HPC)) was 0 of 3.
